# Experimental data published in the supplement of paper PMC12889115.
# The list shows a part of the results. These are raw signals, not scaled to a control.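 In the initial screen, polymyxin B was used at a concentration that permeabilizes Salmonella's outer membrane but not its inner membrane. Maximum growth was set by DMSO wells with or without polymyxin B. Since plates varied, data were ranked per plate, and compounds giving the lowest OD600 advanced as hits.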
# Test system: Salmonella enterica serovar Typhimurium SL1344
# Experiment: bacterial growth OD600 after 18 h with compound and polymyxin B; higher = more bacterial growth (less inhibition)
# Details: 50 µM, Mueller-Hinton broth
SMILES,bacterial growth OD600 (polymyxin B 0.75 µg/mL),bacterial growth OD600 (polymyxin B 1 µg/mL)
CCNC(=O)c1cn(CCc2ccccc2)cc(C(=O)N(C)Cc2cccs2)c1=O,0.811,
C[C@@H]1CN(C2(C(=O)NCCc3cscn3)Cc3ccccc3C2)C[C@H](C)O1,,1.07
CN(C)CCN1C(=O)CC(CC(=O)N2CCN(Cc3ccccn3)CC2)(c2ccccc2Cl)C1=O (stereo unspecified),0.64,
O=S(=O)(NCc1cccnc1Oc1ccccc1F)c1cccnc1,,0.842
COc1ccc(OC2CCN(C3CCCC3)CC2)c(C(=O)NCC2CCOCC2)c1,,1.27
c1cncc(CN2CCC(C3CCN(c4cnc5ccccc5n4)C3)CC2)c1 (stereo unspecified),0.884,
COc1cccc(OCc2cc(C(=O)NCc3cnn(C)c3C)n[nH]2)c1,0.77,
Cc1ccccc1C(CC(=O)N(C)CCn1ccnc1)c1ccccc1 (stereo unspecified),0.55,
Cc1ncc2c(c1CNC(=O)c1cccs1)CCN(C(=O)c1c(-c3ccccc3)noc1C)C2,0.996,
OCC1(Cc2ccccc2)CCN(Cc2cc(F)ccc2-n2cccn2)CC1,,0.894
CC1(C(=O)N2CCCC2C(=O)Nc2cccc(-n3cccn3)c2)CC1 (stereo unspecified),,1.11
Cc1cnc(CNC(=O)C2(N(C)CCc3ccccc3)Cc3ccccc3C2)cn1,0.523,
O=C(c1ccco1)N1CCOC(CCc2ccccc2)C1 (stereo unspecified),0.791,
CN(CC1CCCN(CCc2ccccc2F)C1)C(=O)C1=CCCCC1 (stereo unspecified),,1.08
CC(C)n1cc(C(=O)NCc2ccccc2)c(=O)c(C(=O)N2CCN(c3ccccc3)CC2)c1,0.709,
Cc1ccccc1N1C(=O)CN(C(=O)c2cccc(Cn3cccn3)c2)CC1C (stereo unspecified),0.821,

SMILES,bacterial growth OD600 (polymyxin B 0.75 µg/mL),bacterial growth OD600 (polymyxin B 1 µg/mL)
CCCn1cc(CN(C)CC2CCCN(CCc3ccccc3F)C2)c(C)n1 (stereo unspecified),,0.764
O=C(c1ccc(-n2cccn2)cc1)N1CCCC(CO)(CCOc2ccccc2)C1 (stereo unspecified),0.695,
CCC(=O)NCc1cccnc1-n1cnc2ccccc21,,0.866
COCCC1CCCCN1Cc1cnc(S(=O)(=O)C(C)C)n1CCc1ccccc1 (stereo unspecified),,1.12
CCN(CC1CCCN(CCc2cccc(F)c2)C1)C(=O)CC1CCN(C)CC1 (stereo unspecified),0.951,
O=C(c1cnc(O)cn1)N1CCC(C2CCN(Cc3cccc(F)c3F)CC2)C1 (stereo unspecified),0.892,
COC(=O)CCCC(=O)NC1CC(C)(C)Cc2nc(C(C)(C)C)ncc21 (stereo unspecified),0.822,
CCn1ccnc1CN1CCC(Oc2cc(OC)ccc2C(=O)N2CCCC2)CC1,,1.07
Fc1ccc(Cc2noc(-c3ccc(NCc4cccnc4)nc3)n2)cc1,0.004,
CC1(C)C(=O)NCCN1C(=O)CC(c1ccc(O)cc1)c1ccccc1O (stereo unspecified),,0.963
O=C(NCc1cccs1)c1cn(C2CCCCC2)cc(C(=O)NC2CC2)c1=O,0.724,
COc1cccc(CCC2CCCN(C(=O)CN3CCCC3=O)C2)c1 (stereo unspecified),0.781,
O=C(NCc1cccc(C(F)(F)F)c1)C1CC12CCN(Cc1cccc(O)c1)CC2 (stereo unspecified),0.838,
COc1ccccc1CN1C(=O)O[C@@H]2CN(Cc3cccc(C)n3)C[C@@H]21,0.786,
COCCN1C(=O)CC(CC(=O)N(CC2CCC2)CC2CCCO2)(c2ccccc2F)C1=O (stereo unspecified),0.738,

# Random excerpt: 2 records from the list, in no set order.
SMILES,bacterial growth OD600 (polymyxin B 0.75 µg/mL),bacterial growth OD600 (polymyxin B 1 µg/mL)
CC1(C)C(=O)NCCN1C(=O)CC(c1ccc(O)cc1)c1ccccc1O (stereo unspecified),,0.963
Fc1ccc(Cc2noc(-c3ccc(NCc4cccnc4)nc3)n2)cc1,0.004,
